Assay results: US5840303A, “Peptides for inducing cytotoxic T lymphocyte responses to hepatitis B virus” (The Scripps Research Foundation, priority 1995, dated 1998)
At least one peptide structure holds a part that was inferred or is arguable (an end, a ring closure or a residue). Residues, ends and D or L forms follow the SMILES beside them.

Key:
Type in all cases: cell-based, human
[1] = tested on: CTL clone 3D11 (HLA A31 restricted); conditions: autologous B-LCL preincubated with truncated peptide
[2] = tested on: CTL clone 2D7 (HLA Aw68 restricted); conditions: autologous B-LCL preincubated with truncated peptide
[3] = tested on: HLA-A2 matched target cells pulsed with peptide or expressing endogenous polymerase antigen (Vpol or EBO-pol); conditions: HLA-A2+ patient with acute hepatitis
[4] = tested on: HBV specific CTL in peripheral blood lymphocytes of HLA-A2 positive patients with acute hepatitis B; experiment: 51Cr release assay of peptide-stimulated PBL against peptide pulsed BCL cells (Example I)
[5] = tested on: autologous target cells pulsed with peptide HBc11-27; experiment: Immunodominance of the HBc11-27 CTL epitope in HLA-A2 positive subjects
From the text: To assess the immunodominance in the HLA-A2 haplotype of the CTL epitope(s) contained in peptide HBc11-27, eight additional subjects with self-limited acute hepatitis B infection, four patients with chronic active hepatitis B, and eight healthy subjects without evidence of previous exposure to HBV (all HLA-A2 positive) were repeatedly tested.
Patient to patient variations in the pattern of response to the peptide were observed during the course of the illness. The cytolytic activity was generally detectable during the icteric phase when transaminase values were high; in some patients the response was long-lasting, being still detectable when GPT levels had already become normal, and in other subjects the lytic activity became undetectable 2 or 3 weeks after the transaminase peak when GPT levels were still slightly altered.

[6] = tested on: HLA-A2 matched target cells pulsed with the peptide; experiment: HLA-A2 restricted CTL response to HBV X protein peptide

CC(C)C[C@H](NC(=O)[C@@H](NC(=O)[C@@H](N)CO)[C@@H](C)O)C(=O)N1CCC[C@H]1C(=O)N[C@@H](CCC(=O)O)C(=O)N[C@H](C(=O)N[C@H](C(=O)N[C@H](C(=O)N[C@H](C(=O)O)C(C)C)C(C)C)[C@@H](C)O)[C@@H](C)O [141-149] (H-STLPETTVV-OH)
Clone 3D11 Restriction Element A31 Percent 51Cr Release [1]: 0%
Clone 2D7 Restriction Element Aw68 Percent 51Cr Release [2]: 3%

CC(C)C[C@H](NC(=O)[C@H](CC(N)=O)NC(=O)[C@H](CC(C)C)NC(=O)[C@@H](N)CC(=O)O)C(=O)NCC(=O)N[C@@H](CC(N)=O)C(=O)N[C@@H](CC(C)C)C(=O)N[C@@H](CC(N)=O)C(=O)N[C@H](C(=O)O)C(C)C [927.30] (H-DLNLGNLNV-OH)
stimulation of CTL response, target cells pulsed with peptide [3]: did not stimulate the specific CTL response

CC[C@H](C)[C@H](NC(=O)[C@@H](NC(=O)[C@@H](NC(=O)[C@H](CCC(=O)O)NC(=O)[C@H](CCCNC(=N)N)NC(=O)CN)[C@@H](C)O)C(C)C)C(=O)N[C@@H](CCC(=O)O)C(=O)N[C@@H](Cc1ccc(O)cc1)C(=O)N[C@@H](CC(C)C)C(=O)N[C@H](C(=O)N[C@@H](CO)C(=O)N[C@@H](Cc1ccccc1)C(=O)NCC(=O)N[C@H](C(=O)N[C@@H](Cc1c[nH]c2ccccc12)C(=O)O)C(C)C)C(C)C [HBc111-125]
stimulation of CTL activity ([4]; separate experiments performed as generally described): specifically stimulate CTL activity against HBV antigens

CC(C)C[C@H](NC(=O)[C@H](CC(C)C)NC(=O)[C@H](CCC(=O)O)NC(=O)[C@@H](NC(=O)[C@@H](NC(=O)[C@H](C)N)[C@@H](C)O)C(C)C)C(=O)N[C@@H](CO)C(=O)N[C@@H](Cc1ccccc1)C(=O)N[C@@H](CC(C)C)C(=O)N1CCC[C@H]1C(=O)N[C@@H](CO)C(=O)N[C@@H](CC(=O)O)C(=O)N[C@@H](Cc1ccccc1)C(=O)N[C@@H](Cc1ccccc1)C(=O)N1CCC[C@H]1C(=O)N[C@@H](CO)C(=O)N[C@H](C(=O)O)C(C)C [HBc11-27] (H-ATVELLSFLPSDFFPSV-OH)
lysis of peptide-incubated BCL by lymphocytes after peptide stimulation ([4]; patient two, one week of stimulation with a peptide mixture containing HBc11-27, E/T 100): specifically lysed autologous and HLA-A2 matched B-lymphoblastoid cells (BCL) incubated with the peptide
HLA restriction of peptide recognition by the CTL ([4]; short term CTL lines of patients two, HLA-A2 positive vs mismatched targets): HLA-A2 restricted
CTL recognition of autologous target cells pulsed with peptide ([5]; acute hepatitis B patients, HLA-A2 positive, serially studied): efficiently recognized autologous target cells
lytic activity against peptide ([5]; normal HLA-A2 positive control subjects): not detectable
cytolytic activity against autologous macrophages pulsed with peptide ([5]; three of the four chronic active hepatitis B patients): did not show cytolytic activity

CC(C)C[C@H](NC(=O)[C@@H](N)[C@@H](C)O)C(=O)N1CCC[C@H]1C(=O)N[C@@H](CCC(=O)O)C(=O)N[C@H](C(=O)N[C@H](C(=O)N[C@H](C(=O)N[C@H](C(=O)N[C@@H](CCCNC(=N)N)C(=O)O)C(C)C)C(C)C)[C@@H](C)O)[C@@H](C)O [142-150]
Clone 3D11 Restriction Element A31 Percent 51Cr Release [1]: 0%
Clone 2D7 Restriction Element Aw68 Percent 51Cr Release [2]: 0%

CC[C@H](C)[C@H](NC(=O)[C@@H](N)CCC(=O)O)C(=O)N[C@@H](CCCNC(=N)N)C(=O)N[C@@H](CC(C)C)C(=O)N[C@@H](CCCCN)C(=O)N[C@H](C(=O)N[C@@H](Cc1ccccc1)C(=O)N[C@H](C(=O)N[C@@H](CC(C)C)C(=O)O)C(C)C)C(C)C [HBx126-134] (H-EIRLKVFVL-OH)
induction of specific CTL response ([6]; patient with acute hepatitis, targets pulsed with analog or wild type peptide): not able to induce a specific CTL response
recognition by CTL induced with the analog peptide ([6]; target cells pulsed with the peptide): also recognized

CC(C)C[C@H](N)C(=O)N1CCC[C@H]1C(=O)N[C@@H](CCC(=O)O)C(=O)N[C@H](C(=O)N[C@H](C(=O)N[C@H](C(=O)N[C@H](C(=O)N[C@@H](CCCNC(=N)N)C(=O)N[C@@H](CCCNC(=N)N)C(=O)O)C(C)C)C(C)C)[C@@H](C)O)[C@@H](C)O [143-151] (H-LPETTVVRR-OH)
Clone 3D11 Restriction Element A31 Percent 51Cr Release [1]: 0%
Clone 2D7 Restriction Element Aw68 Percent 51Cr Release [2]: 0%
